{"source": "patent US20170081300A1", "about": "“SYDNONE DERIVATIVES FOR CONJUGATION OF COMPOUNDS OF INTEREST” (UNIVERSITE DE STRASBOURG, priority 2014, published 2017)", "assay": "Competitive cycloaddition of sydnone and azide 1 with BCN followed by 1H NMR", "assay_type": "physicochemical", "settings": "0.1 mmol each of sydnone, azide 1 and BCN, CD3OD, room temperature", "method": "0.1 mmol of sydnone S1-2, azide 1\nand BCN were dissolved in CD3OD at room temperature. The reaction was followed by NMR on the aromatic part of the spectrum which provides specific NMR signals."}
{"molecule": "O=C(O)c1ccc(-[n+]2noc([O-])c2Cl)cc1", "note": "[Sydnone S1-2, 3-(4-carboxyphenyl)-4-chloro-1,2,3λ^5-oxadiazol-3-ylium-5-olate]", "values": [{"measurement": "competition with azide for cyclooctyne, share in favor of the chlorosydnone", "result": "more than 95%"}]}
